Data on four molecules can be found in the supplement of paper PMC4862054.

Most values lie at the level of the controls, where differences are scatter.

What all share (experiment): normalised response (% of control), CellTox Green; higher = less cell death (100 = DMSO, 0 = benzethonium chloride kill control)
Holding throughout (conditions): incubation time: 72 h

The subject of assay [1] is MDA-MB-231. The method, then: (§1)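 DSRT, 72 h incubation, CellTox Green / CellTiter-Glo readout. Signal is normalised to DMSO and benzethonium chloride controls. Value is the normalised response at dose 2.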
The subject of assay [2] is MCF-10A. The method, then: as §1
Assay [3] deals with MDA-MB-453. The method, then: as §1
Assay [4] deals with CAL-148. The method, then: as §1
For assay [5], the system named is BT-549. As to the method:
as §1

For assay [6], the system named is CAL-120. The method, then:
as §1

Assay [7] deals with HDQ-P1. The method, then: as §1
The subject of assay [8] is HCC1143. The method, then: as §1
Assay [9] has as its system DU-4475. As to the method: as §1
The subject of assay [10] is HCC1599. As to the method:
as §1

The test system of assay [11] is CAL-85-1. As to the method:
as §1

In assay [12] the test system is MDA-MB-436. As to the method: as §1
Assay [13] has as its system Hs578T. The method, then:
as §1

Assay [14] concerns MDA-MB-468. The method, then:
as §1

In assay [15] the test system is CAL-51. The method, then:
as §1

Assay [16] deals with MFM-223. As to the method: as §1
Assay [17] relates to BT-474. As to the method:
as §1

Consider `O=C(O)C1(C(=O)O)CCC1.[NH2-].[NH2-].[Pt+2]` [Carboplatin] (10 nM), for which the normalised response in assay [1] came out at 112%; in [2], 102%; in [3] it was 103%; in assay [4], 103%; in assay [5], 100%; in assay [6] it was 98.7%. Besides, the normalised response in assay [7] was 111%; in [8], 109%; in [9] it was 96.9%; in [10], 102%; in assay [11], 98.6%; in assay [12], 62.9%. For the same molecule, the normalised response was 129% in assay [13]; 143% in [14]; 94% in assay [15]; 91.3% in assay [16]; 105% in [17].
With `Cc1ccc(-c2cc(C(F)(F)F)nn2-c2ccc(S(N)(=O)=O)cc2)cc1` [Celecoxib] (10 nM), the normalised response in assay [1] is 104%; in assay [2], 97.2%; in assay [3], 98.2%; in assay [4], 105%; in assay [5] it was 71.5%; in assay [6] it was 102%. For the same molecule, the normalised response was 115% in [7]; 99.6% in assay [8]; 95.9% in assay [9]; 90% in assay [10]; 104% in assay [11]; 73.8% in assay [12]. For the same molecule, the normalised response in [13] was found to be 112%; in assay [14], 76.8%; in [15], 106%; in [16], 99.4%; in assay [17], 101%.
As to `COc1cccc2cc(-c3nc([C@H]4CC[C@H](C(=O)O)CC4)n4ncnc(N)c34)[nH]c12` [OSI-027] (10 nM), the normalised response is 98% in assay [1]; 101% in assay [2]; 108% in [3]; 57% in assay [4]; 95.6% in assay [5]; 99.7% in assay [6]. For the same molecule, the normalised response in assay [7] stood at 109%; in assay [8] it was 104%; in assay [9], 102%; in assay [10] it was 105%; in [11], 96.5%; in assay [12], 110%. For the same molecule, the normalised response in assay [13] is 120%; in [14], 67.6%; in assay [15], 63.2%; in [16], 90.9%; in assay [17], 100%.
With `Cn1cnc2c(F)c(Nc3ccc(Br)cc3Cl)c(C(=O)NOCCO)cc21` [Selumetinib] (10 nM), the normalised response in assay [1] stood at 87.1%; in [2] it was 102%; in [3], 95.4%; in assay [4] it was 54.1%; in [5], 101%; in assay [6] it was 97%. Further, the normalised response in assay [7] was found to be 110%; in assay [8], 76.5%; in [9] it was 94.4%; in assay [10] it was 76.4%; in [11] it was 100%; in [12] it was 57.5%. The normalised response in assay [13] was 75.7%; in assay [14], 83.9%; in [15], 96%; in [17] it was 92.9%.
